Legend:
[1] = Enzymatic hydrolysis of IL/DSIL pretreated sorghum (sugar release); parameters: species or system Sorghum bicolor; details: sorghum 20 wt %, IL/DSIL 80 wt %, 140° C., 3 h; saccharification 10 mg enzyme per g, 50° C., 72 h
[2] = Lignin removal from sorghum by IL/DSIL pretreatment (acetyl bromide lignin assay); parameters: species or system Sorghum bicolor; details: sorghum 20 wt %, IL/DSIL 80 wt %, 140° C., 3 h
[3] = Pine pretreatment with IL followed by enzymatic hydrolysis (sugar yields); parameters: species or system Pinus radiata; details: pine 20 wt %, IL 80 wt %, 140° C., 3 h, saccharification 10 mg protein per g biomass, 50° C., 72 h

Row | SMILES | glucose release from pretreated sorghum after enzymatic hydrolysis [1] [%] | delignification (lignin removal) after pretreatment [2] [%] | glucose yield after enzymatic hydrolysis of pretreated pine [3] [%] | xylose yield after enzymatic hydrolysis of pretreated pine [3] [%] | glucose yield after enzymatic hydrolysis of pretreated pine ([3]; listed as [Chol][Lys]) [%] | xylose yield after enzymatic hydrolysis of pretreated pine ([3]; listed as [Chol][Lys]) [%]
1 | CC(=O)[O-].C[N+](C)(C)CCO [[Ch][Ace], cholinium acetate] | 85.2 | 45 |  |  |  | 
2 | C[N+](C)(C)CCO.NCCCC[C@H](N)C(=O)[O-] [[Ch][Lys], cholinium lysinate] | 98.2 | 77.4 | 51.6 | 46.3 | 49 | 43
3 | CCCCCCCC(=O)[O-].C[N+](C)(C)CCO [[Ch][Oct], cholinium octanoate] | 41.1 |  |  |  |  | 
4 | CCCCCCCCCCCCCCCC(=O)[O-].C[N+](C)(C)CCO [[Ch][Pal], cholinium palmitate] | 37.9 |  |  |  |  | 

— patent US20220195666A1, “USE OF A PLURALITY OF SALT IONIC LIQUIDS IN THE PRETREATMENT OF BIOMASS” (priority 2020, published 2022)
